From the supplement of paper PMC10849652
Some of the results follow.

Chains of the proteins cited; added tags and fusions are not shown. Lines headed by an entry give the natural chain unless they say otherwise; changes in a name come on top.
UniProt Q9BS92: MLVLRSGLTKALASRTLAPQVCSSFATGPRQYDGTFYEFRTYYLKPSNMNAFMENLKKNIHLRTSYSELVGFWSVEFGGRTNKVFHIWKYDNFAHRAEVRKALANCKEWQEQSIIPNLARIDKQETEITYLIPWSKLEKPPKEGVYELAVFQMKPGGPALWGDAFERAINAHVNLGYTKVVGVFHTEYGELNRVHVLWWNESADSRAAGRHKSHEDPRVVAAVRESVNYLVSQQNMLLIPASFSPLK
UniProt O75607: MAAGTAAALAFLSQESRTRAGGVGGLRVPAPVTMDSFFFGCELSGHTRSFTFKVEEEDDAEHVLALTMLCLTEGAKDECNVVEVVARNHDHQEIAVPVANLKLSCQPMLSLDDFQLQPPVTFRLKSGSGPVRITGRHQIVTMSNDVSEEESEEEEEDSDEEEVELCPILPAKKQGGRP
UniProt Q9Y3C1: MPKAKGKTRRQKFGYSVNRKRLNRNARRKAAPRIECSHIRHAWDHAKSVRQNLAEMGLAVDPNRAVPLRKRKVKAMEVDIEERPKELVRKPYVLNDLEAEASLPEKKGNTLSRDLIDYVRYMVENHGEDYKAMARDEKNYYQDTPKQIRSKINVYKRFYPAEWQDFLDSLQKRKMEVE
UniProt P49116: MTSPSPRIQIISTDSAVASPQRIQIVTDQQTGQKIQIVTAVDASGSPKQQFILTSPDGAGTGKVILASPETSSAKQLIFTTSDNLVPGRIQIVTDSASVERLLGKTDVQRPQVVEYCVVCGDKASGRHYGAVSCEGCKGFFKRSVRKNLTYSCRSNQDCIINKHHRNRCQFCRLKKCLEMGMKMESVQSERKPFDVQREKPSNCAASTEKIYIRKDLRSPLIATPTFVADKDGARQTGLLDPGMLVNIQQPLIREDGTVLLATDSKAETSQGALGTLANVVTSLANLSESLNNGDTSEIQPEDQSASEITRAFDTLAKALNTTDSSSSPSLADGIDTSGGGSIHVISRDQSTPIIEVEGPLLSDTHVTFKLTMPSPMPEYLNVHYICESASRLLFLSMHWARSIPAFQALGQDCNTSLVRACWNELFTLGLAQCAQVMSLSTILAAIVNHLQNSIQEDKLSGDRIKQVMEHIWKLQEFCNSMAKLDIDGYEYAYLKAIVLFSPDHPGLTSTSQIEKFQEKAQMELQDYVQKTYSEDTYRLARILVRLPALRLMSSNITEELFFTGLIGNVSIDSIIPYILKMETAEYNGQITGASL
UniProt O94916: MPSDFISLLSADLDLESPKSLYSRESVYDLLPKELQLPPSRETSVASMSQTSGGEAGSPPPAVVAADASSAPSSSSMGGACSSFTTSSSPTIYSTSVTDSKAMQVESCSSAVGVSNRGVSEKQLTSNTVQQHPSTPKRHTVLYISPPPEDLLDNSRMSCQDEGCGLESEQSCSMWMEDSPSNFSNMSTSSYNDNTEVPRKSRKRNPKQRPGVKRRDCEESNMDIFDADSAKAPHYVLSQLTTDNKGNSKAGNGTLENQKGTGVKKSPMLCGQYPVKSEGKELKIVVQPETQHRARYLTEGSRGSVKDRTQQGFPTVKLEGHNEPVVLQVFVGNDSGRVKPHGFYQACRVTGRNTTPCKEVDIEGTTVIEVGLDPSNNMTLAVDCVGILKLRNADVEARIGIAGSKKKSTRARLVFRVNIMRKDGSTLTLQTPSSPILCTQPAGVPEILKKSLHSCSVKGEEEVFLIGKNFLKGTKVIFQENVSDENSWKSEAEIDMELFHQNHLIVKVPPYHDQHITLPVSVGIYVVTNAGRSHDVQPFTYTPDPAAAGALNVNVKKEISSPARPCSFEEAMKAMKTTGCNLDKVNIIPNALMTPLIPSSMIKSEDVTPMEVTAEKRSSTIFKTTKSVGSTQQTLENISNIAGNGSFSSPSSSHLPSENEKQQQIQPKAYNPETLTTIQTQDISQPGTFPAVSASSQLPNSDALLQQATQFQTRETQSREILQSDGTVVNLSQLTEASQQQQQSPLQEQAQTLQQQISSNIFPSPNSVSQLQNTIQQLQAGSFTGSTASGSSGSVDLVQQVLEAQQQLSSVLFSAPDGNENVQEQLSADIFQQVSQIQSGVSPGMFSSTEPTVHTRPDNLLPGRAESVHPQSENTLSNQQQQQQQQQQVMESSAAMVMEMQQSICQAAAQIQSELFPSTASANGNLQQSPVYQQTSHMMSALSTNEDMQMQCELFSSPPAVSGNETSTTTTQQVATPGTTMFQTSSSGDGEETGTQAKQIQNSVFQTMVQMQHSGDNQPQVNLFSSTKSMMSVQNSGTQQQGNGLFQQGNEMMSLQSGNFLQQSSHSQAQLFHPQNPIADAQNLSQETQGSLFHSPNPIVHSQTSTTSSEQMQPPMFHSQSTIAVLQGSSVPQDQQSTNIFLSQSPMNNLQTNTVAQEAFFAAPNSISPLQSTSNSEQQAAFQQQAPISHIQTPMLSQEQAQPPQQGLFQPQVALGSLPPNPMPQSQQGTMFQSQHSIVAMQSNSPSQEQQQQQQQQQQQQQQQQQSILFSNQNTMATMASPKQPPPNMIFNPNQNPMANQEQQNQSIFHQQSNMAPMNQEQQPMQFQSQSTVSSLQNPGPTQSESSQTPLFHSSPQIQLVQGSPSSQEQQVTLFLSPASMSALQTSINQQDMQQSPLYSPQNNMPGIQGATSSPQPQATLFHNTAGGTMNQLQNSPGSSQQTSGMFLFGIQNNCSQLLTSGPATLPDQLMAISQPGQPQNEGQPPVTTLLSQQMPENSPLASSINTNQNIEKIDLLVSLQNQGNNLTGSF
UniProt Q15738: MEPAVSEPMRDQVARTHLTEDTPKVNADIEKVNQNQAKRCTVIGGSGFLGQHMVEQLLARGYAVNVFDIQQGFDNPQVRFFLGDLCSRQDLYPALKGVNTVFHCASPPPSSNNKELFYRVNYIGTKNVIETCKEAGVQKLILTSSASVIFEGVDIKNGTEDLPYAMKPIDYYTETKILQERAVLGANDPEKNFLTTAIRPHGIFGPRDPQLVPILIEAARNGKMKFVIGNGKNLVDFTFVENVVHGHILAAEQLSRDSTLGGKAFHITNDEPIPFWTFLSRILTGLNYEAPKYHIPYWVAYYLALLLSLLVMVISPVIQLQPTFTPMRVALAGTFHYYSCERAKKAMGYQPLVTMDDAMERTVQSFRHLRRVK
UniProt Q9UMX5: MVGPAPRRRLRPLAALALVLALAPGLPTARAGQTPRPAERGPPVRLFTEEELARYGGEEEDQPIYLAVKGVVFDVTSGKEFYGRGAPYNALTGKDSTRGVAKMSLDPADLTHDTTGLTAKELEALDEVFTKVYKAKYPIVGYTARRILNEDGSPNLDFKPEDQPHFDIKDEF
UniProt O60524: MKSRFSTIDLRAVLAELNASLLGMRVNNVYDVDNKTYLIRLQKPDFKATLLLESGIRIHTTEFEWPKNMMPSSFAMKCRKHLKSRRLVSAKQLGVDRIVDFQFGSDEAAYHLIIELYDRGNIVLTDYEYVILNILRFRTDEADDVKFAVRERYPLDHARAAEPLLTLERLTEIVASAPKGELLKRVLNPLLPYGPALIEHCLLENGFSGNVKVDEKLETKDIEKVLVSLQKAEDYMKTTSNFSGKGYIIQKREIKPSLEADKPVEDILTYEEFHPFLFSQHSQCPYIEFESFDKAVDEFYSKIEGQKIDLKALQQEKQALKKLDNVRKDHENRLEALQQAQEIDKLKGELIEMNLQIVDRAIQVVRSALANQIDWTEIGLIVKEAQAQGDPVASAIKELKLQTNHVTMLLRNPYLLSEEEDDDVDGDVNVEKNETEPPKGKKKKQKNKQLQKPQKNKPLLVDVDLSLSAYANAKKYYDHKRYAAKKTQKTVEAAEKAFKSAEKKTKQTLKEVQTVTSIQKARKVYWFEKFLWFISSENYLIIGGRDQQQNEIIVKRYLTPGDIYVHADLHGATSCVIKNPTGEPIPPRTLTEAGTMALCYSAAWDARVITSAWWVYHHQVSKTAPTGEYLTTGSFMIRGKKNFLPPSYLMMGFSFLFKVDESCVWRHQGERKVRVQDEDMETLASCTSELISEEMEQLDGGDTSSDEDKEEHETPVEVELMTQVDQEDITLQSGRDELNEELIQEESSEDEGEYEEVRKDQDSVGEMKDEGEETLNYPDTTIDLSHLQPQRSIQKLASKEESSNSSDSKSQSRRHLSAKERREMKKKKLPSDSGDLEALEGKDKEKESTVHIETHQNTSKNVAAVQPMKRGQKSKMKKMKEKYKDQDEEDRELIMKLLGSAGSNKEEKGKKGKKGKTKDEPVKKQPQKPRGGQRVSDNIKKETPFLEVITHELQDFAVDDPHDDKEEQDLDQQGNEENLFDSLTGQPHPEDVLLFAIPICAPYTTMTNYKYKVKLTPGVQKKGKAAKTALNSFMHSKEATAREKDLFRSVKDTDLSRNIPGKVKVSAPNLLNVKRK
UniProt Q9H6R4: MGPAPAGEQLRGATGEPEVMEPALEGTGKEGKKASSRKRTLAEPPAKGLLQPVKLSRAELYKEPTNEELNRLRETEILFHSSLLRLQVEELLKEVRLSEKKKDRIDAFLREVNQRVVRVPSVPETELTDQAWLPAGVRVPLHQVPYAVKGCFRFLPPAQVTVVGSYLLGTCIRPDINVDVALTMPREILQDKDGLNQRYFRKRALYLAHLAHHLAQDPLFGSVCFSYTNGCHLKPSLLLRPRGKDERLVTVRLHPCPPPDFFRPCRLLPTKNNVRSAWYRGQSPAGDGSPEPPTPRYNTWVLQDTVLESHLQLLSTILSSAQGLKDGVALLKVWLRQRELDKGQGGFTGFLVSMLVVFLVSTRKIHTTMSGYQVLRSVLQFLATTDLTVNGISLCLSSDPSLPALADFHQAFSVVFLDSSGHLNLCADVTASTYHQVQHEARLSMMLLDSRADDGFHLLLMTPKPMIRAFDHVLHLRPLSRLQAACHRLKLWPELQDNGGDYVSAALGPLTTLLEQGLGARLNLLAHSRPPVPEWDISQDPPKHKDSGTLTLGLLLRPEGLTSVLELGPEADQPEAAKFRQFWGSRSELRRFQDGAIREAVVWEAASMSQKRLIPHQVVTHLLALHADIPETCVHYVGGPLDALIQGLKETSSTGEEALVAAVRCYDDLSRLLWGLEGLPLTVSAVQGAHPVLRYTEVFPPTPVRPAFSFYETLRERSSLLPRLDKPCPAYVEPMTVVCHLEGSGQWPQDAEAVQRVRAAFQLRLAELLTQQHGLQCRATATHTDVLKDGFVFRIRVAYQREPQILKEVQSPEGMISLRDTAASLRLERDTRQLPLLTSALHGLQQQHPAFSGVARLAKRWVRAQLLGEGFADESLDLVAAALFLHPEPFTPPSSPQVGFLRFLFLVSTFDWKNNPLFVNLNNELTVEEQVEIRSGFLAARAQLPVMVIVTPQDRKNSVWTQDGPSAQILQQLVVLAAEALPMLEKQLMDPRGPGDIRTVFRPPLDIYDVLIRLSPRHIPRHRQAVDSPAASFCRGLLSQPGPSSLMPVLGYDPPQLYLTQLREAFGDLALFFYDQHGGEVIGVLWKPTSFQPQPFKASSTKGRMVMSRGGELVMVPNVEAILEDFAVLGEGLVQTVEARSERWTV
UniProt P55786: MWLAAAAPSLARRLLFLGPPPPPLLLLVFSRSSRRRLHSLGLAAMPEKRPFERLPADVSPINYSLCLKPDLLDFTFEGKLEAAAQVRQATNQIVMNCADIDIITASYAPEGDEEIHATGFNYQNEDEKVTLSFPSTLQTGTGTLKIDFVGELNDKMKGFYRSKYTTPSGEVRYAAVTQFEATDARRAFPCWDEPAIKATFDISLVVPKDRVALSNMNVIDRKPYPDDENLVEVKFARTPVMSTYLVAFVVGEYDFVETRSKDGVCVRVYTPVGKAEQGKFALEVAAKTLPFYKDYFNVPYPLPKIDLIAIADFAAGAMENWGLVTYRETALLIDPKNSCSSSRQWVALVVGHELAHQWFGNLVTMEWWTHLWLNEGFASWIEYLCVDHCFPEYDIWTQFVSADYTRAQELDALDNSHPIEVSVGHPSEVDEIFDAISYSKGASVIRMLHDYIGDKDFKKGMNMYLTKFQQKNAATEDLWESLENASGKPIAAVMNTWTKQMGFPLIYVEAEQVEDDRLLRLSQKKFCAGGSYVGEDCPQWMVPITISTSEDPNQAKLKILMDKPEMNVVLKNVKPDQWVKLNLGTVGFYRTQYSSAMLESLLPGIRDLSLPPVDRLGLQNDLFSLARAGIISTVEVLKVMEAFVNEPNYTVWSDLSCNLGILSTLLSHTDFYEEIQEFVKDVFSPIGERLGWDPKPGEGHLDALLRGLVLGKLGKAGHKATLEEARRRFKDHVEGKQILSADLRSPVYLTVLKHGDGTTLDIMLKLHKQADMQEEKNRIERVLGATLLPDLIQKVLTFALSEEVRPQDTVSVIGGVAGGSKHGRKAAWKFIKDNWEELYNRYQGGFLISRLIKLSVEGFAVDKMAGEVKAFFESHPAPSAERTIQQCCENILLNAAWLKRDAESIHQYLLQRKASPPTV

How the values were obtained:
Experiment in all cases: log2 fold change, soluble protein after heating vs DMSO (PISA); higher = thermal stabilisation; K562 cells, 10 uM, 30 min; active = over 0.2 and 3.5 SD of the protein, either way, in both replicates (recomputed)
[1] = compound: CN1CCN(CCOc2cc(OC3CCOCC3)c3c(Nc4c(Cl)ccc5c4OCO5)ncnc3c2)CC1 [saracatinib]
Outline: (§1)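 K562 cells (2×10^6 cells/mL) were treated with 10 μM compound for 30 min, and aliquots were heated for 3 min over 48°C-58°C. Pooled aliquots were extracted in PBS with 0.5% NP-40 at 4°C, and the supernatant after 21,000xg for 90 min was measured by TMTpro 16plex LC-MS/MS with channel sums equalised. Reported thermal stability, relative to control samples and from duplicates, is a log2 fold change.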

[2] = compound: CN1CCN(c2nc(C3=C(c4c[nH]c5ccccc45)C(=O)NC3=O)c3ccccc3n2)CC1 [sotrastaurin]
Outline: as §1

[3] = compound: CN1CC[C@H](c2c(O)cc(O)c3c(=O)cc(-c4ccccc4Cl)oc23)[C@H](O)C1 [alvocidib]
Outline: as §1

[4] = compound: CN1CCc2c(c3ccccc3n2Cc2ccc(C(=O)NO)cc2)C1 [Tubastatin A]
Outline: as §1

[5] = compound: CNC(=O)C1=CC=CC=C1NC2=NC(=NC=C2Cl)NC3=C(C=C(C=C3)N4CCOCC4)OC
Outline: as §1

[6] = compound: CNCc1ccc(-c2[nH]c3cc(F)cc4c3c2CCNC4=O)cc1 [rucaparib]
Outline: as §1

[7] = compound: CNc1nc(-c2ccc3c(N)n[nH]c3c2)cc(N2C[C@@H](C(=O)NC3CCCCC3)CC[C@H]2C)n1
Outline: as §1

[8] = compound: COC(=O)N[C@@H](C)CNc1nccc(-c2cn(C(C)C)nc2-c2cc(Cl)cc(NS(C)(=O)=O)c2F)n1 [encorafenib]
Outline: as §1

[9] = compound: COC1=CC=C(C=C1)CN2C=CC3=C2C=C(C=C3)C(=O)NO
Outline: as §1

[10] = compound: CON(C)C(=O)N1N=C(c2cc(F)ccc2F)S[C@@]1(CCCN)c1ccccc1 [filanesib]
Outline: as §1

[11] = compound: CO[C@H]1C[C@@H]2CC[C@@H](C)[C@@](O)(O2)C(=O)C(=O)N2CCCC[C@H]2C(=O)O[C@H]([C@H](C)C[C@@H]2CC[C@H](n3cnnn3)[C@H](OC)C2)CC(=O)[C@H](C)/C=C(\C)[C@@H](O)[C@@H](OC)C(=O)[C@H](C)C[C@H](C)/C=C/C=C/C=C/1C [zotarolimus]
Outline: as §1

[12] = compound: COc1cc(C(=O)O)ccc1NC(=O)[C@@H]1N[C@@H](CC(C)(C)C)[C@](C#N)(c2ccc(Cl)cc2F)[C@H]1c1cccc(Cl)c1F [idasanutlin]
Outline: as §1

[13] = compound: COc1cc(Nc2ncc3c(n2)-c2ccc(Cl)cc2C(c2c(F)cccc2OC)=NC3)ccc1C(=O)O [alisertib]
Outline: as §1

[14] = compound: COc1cc2nc(-c3cc(F)ccc3O)nc(N[C@@H]3CNC[C@H]3C(C)(C)O)c2cc1OC
Outline: as §1

[15] = compound: COc1cc2ncnc(Nc3ccc(F)c(Cl)c3)c2cc1OCCCN1CCOCC1 [gefitinib]
Outline: as §1

[16] = compound: COc1cccc2cc(-c3nc([C@H]4CC[C@H](C(=O)O)CC4)n4ncnc(N)c34)[nH]c12
Outline: as §1

[17] = compound: CS(=O)(=O)CCNCc1ccc(-c2ccc3ncnc(Nc4ccc(OCc5cccc(F)c5)c(Cl)c4)c3c2)o1 [lapatinib]
Outline: as §1

[18] = compound: CS(=O)(=O)N1CCN(Cc2cc3nc(-c4cccc5[nH]ncc45)nc(N4CCOCC4)c3s2)CC1 [pictilisib]
Outline: as §1

[19] = compound: CNC(=O)c1ccc(Nc2ncc(C(F)(F)F)c(NCc3nccnc3N(C)S(C)(=O)=O)n2)cc1 [defactinib]
Outline: as §1

[20] = compound: COC(=O)[C@H](CCSC)NC(=O)C1=C(C=C(C=C1)NC[C@H](CS)N)C2=CC=CC=C2
Outline: as §1

Target | log2 fold change [1] | log2 fold change [2] | log2 fold change [3] | log2 fold change [4] | log2 fold change [5] | log2 fold change [6] | log2 fold change [7] | log2 fold change [8] | log2 fold change [9] | log2 fold change [10] | log2 fold change [11] | log2 fold change [12] | log2 fold change [13] | log2 fold change [14] | log2 fold change [15] | log2 fold change [16] | log2 fold change [17] | log2 fold change [18] | log2 fold change [19] | log2 fold change [20]
NHLRC3 (UniProt Q5JS37) | inactive: 0.109 | inactive: 0.045 | inactive: -0.073 | inactive: -0.124 | inactive: -0.037 | inactive: -0.217 | inactive: -0.031 | inactive: 0.058 | inactive: 0.073 | inactive: -0.019 | inactive: 0.027 | inactive: -0.039 | inactive: 0.177 | inactive: 0.101 | inactive: 0.108 | inactive: 0.148 | inactive: -0.025 | inactive: 0.037 |  | 
NOL12 (UniProt Q9UGY1) | inactive: -0.143 | inactive: -0.012 | inactive: 0.38 | inactive: 0.027 | inactive: 0.029 |  | inactive: -0.063 |  | inactive: -0.119 | inactive: 0.595 | inactive: -0.019 | inactive: 0.182 | inactive: -0.132 | inactive: 0.08 | inactive: -0.027 | inactive: -0.149 | inactive: 0.098 | inactive: -0.004 | inactive: 0.523 | inactive: 0
NIPSNAP3B (UniProt Q9BS92) | inactive: 0.122 | inactive: 0.066 |  | inactive: 0.01 | inactive: 0.112 | active: 0.31 | inactive: -0.088 | inactive: -0.289 | inactive: -0.033 | inactive: -0.168 | inactive: 0.013 | inactive: 0.046 | inactive: -0.046 | inactive: -0.071 | inactive: -0.138 | inactive: 0.009 | inactive: -0.09 | inactive: 0.002 | inactive: -0.026 | inactive: 0.008
NPM3 (UniProt O75607) | inactive: 0 | inactive: 0 |  | inactive: 0.031 | inactive: -0.06 | inactive: 0.155 | inactive: -0.042 | inactive: 0.034 | inactive: 0.123 | inactive: 0.116 | inactive: 0.104 | inactive: 0.258 | inactive: -0.205 | inactive: 0.006 | inactive: -0.011 | inactive: -0.069 | inactive: -0.003 | inactive: -0.025 | inactive: 0.001 | inactive: -0.04
NOP16 (UniProt Q9Y3C1) | inactive: -0.109 | inactive: 0.198 | inactive: 0.348 | inactive: 0.092 | inactive: -0.029 | inactive: 0.145 | inactive: 0.093 | inactive: 0.152 | inactive: -0.036 | inactive: 0.638 | inactive: 0.008 | inactive: 0.17 | inactive: -0.012 | inactive: -0.033 | inactive: -0.065 | inactive: -0.09 | inactive: 0.174 | inactive: 0.063 | inactive: 0.424 | inactive: -0.042
NR2C2 isoform 2 (UniProt P49116) | inactive: 0.052 | inactive: -0.041 |  | inactive: -0.013 | inactive: 0.005 | inactive: 0.071 | inactive: -0.044 | inactive: 0.053 | inactive: 0.026 | inactive: 0.019 | inactive: 0.055 | inactive: 0.041 | inactive: -0.173 | inactive: 0.028 | inactive: -0.052 | inactive: 0.084 | inactive: -0.004 | inactive: 0.019 | inactive: 0.001 | inactive: 0.028
NFAT5 isoform 5 (UniProt O94916) | inactive: -0.072 | inactive: -0.005 | inactive: -0.004 | inactive: 0.071 | inactive: 0.098 | inactive: -0.011 | inactive: 0.001 | inactive: 0.05 | inactive: -0.079 | inactive: 0.1 | inactive: 0.1 | inactive: -0.237 | inactive: 0.006 | inactive: -0.114 | inactive: -0.029 | inactive: 0.319 | inactive: 0.005 | inactive: 0.111 | inactive: -0.044 | inactive: 0.03
NSDHL (UniProt Q15738) | inactive: -0.07 | inactive: 0.043 |  | inactive: -0.004 | inactive: 0.072 | inactive: -0.094 | inactive: 0.041 | inactive: -0.019 | inactive: 0.006 | inactive: -0.11 | inactive: 0.04 | inactive: 0.208 | inactive: 0.033 | inactive: -0.062 | inactive: 0.021 | inactive: 0 | inactive: 0.185 | inactive: 0.023 | inactive: -0.037 | inactive: -0.021
NR2F2 (UniProt P24468) | inactive: 0.093 | inactive: -0.065 | inactive: -0.03 | inactive: -0.012 | inactive: -0.025 | inactive: 0.093 | inactive: -0.044 | inactive: 0.041 | inactive: -0.038 | inactive: 0.022 | inactive: -0.02 | inactive: -0.146 | inactive: -0.051 | inactive: 0.017 | inactive: 0.039 | inactive: -0.006 | inactive: 0.029 | inactive: 0.007 | inactive: -0.086 | inactive: 0.014
NENF (UniProt Q9UMX5) | inactive: -0.013 | inactive: 0.001 | inactive: 0.007 | inactive: -0.004 | inactive: -0.02 | inactive: 0.009 | inactive: -0.02 | inactive: -0.023 | inactive: -0.023 | inactive: -0.031 | inactive: -0.026 | inactive: -0.064 | inactive: -0.029 | inactive: 0.061 | inactive: 0.034 | inactive: 0.012 | inactive: -0.024 | inactive: -0.007 | inactive: 0.042 | inactive: 0.022
NSD3 (UniProt Q9BZ95) | inactive: 0.139 | inactive: -0.087 | inactive: 0.011 | inactive: 0.07 | inactive: -0.034 |  | inactive: -0.174 |  | inactive: -0.134 | inactive: 0.378 | inactive: 0.076 | inactive: 0.061 |  |  |  |  |  | inactive: -0.145 | inactive: 0.033 | inactive: 0.037
NEMF (UniProt O60524) | inactive: -0.181 | inactive: -0.032 | inactive: 0.222 | inactive: 0.164 | inactive: -0.019 | inactive: 0.316 | inactive: 0.151 | inactive: 0.132 | inactive: -0.048 | inactive: 0.4 | inactive: 0.049 | inactive: 0.193 | inactive: -0.076 | inactive: 0.012 | inactive: -0.067 | inactive: -0.319 | inactive: 0.018 | inactive: -0.143 | inactive: 0.302 | inactive: -0.022
NOP14 (UniProt P78316) | inactive: -0.101 | inactive: 0 | inactive: 0.021 | inactive: 0.009 |  |  | inactive: 0.046 |  | inactive: 0.063 | inactive: -0.008 | inactive: -0.001 | inactive: 0.282 | inactive: -0.041 |  | inactive: 0.037 | inactive: -0.121 |  | inactive: -0.097 | inactive: 0.016 | inactive: 0.067
NOL6 (UniProt Q9H6R4) | inactive: -0.056 | inactive: -0.043 | inactive: 0.158 | inactive: 0.113 |  |  | inactive: 0.116 |  | inactive: -0.243 | inactive: 0.483 | inactive: 0.126 | inactive: 0.298 | inactive: -0.312 | inactive: -0.136 |  | inactive: -0.352 | inactive: 0.148 | inactive: 0.024 | inactive: 0.168 | inactive: -0.048
NPEPPS (UniProt P55786) | inactive: -0.013 | inactive: 0.108 |  | inactive: 0.012 | inactive: -0.082 | inactive: 0.013 | inactive: 0.075 | inactive: -0.032 | active: 0.22 | inactive: -0.056 | active: 0.338 | inactive: -0.072 | inactive: -0.017 | inactive: 0.037 | inactive: -0.026 | inactive: 0.066 | inactive: -0.002 | inactive: -0.001 | inactive: -0.004 | active: 0.231
NOB1 (UniProt Q9ULX3) | inactive: -0.022 | inactive: -0.092 |  | inactive: 0.045 | inactive: -0.047 | inactive: 0.141 | inactive: 0.103 | inactive: 0.007 | inactive: 0.16 | inactive: 0.001 | inactive: 0.026 | inactive: 0.068 | inactive: -0.14 | inactive: 0.044 | inactive: 0.01 | inactive: -0.13 | inactive: 0.045 | inactive: -0.042 | inactive: -0.009 | inactive: 0
NFYC (UniProt Q13952) | inactive: 0.011 | inactive: 0.012 |  | inactive: -0.021 | inactive: -0.022 | inactive: -0.041 | inactive: -0.019 | inactive: 0.005 | inactive: -0.026 | inactive: -0.023 | inactive: 0.004 | inactive: -0.065 | inactive: -0.036 | inactive: 0.017 | inactive: -0.018 | inactive: 0.127 | inactive: 0.033 | inactive: 0.092 | inactive: -0.022 | inactive: 0.005

Reprinted at random: 2 entries already listed
Target | log2 fold change [1] | log2 fold change [2] | log2 fold change [3] | log2 fold change [4] | log2 fold change [5] | log2 fold change [6] | log2 fold change [7] | log2 fold change [8] | log2 fold change [9] | log2 fold change [10] | log2 fold change [11] | log2 fold change [12] | log2 fold change [13] | log2 fold change [14] | log2 fold change [15] | log2 fold change [16] | log2 fold change [17] | log2 fold change [18] | log2 fold change [19] | log2 fold change [20]
NOP14 (UniProt P78316) | inactive: -0.101 | inactive: 0 | inactive: 0.021 | inactive: 0.009 |  |  | inactive: 0.046 |  | inactive: 0.063 | inactive: -0.008 | inactive: -0.001 | inactive: 0.282 | inactive: -0.041 |  | inactive: 0.037 | inactive: -0.121 |  | inactive: -0.097 | inactive: 0.016 | inactive: 0.067
NENF (UniProt Q9UMX5) | inactive: -0.013 | inactive: 0.001 | inactive: 0.007 | inactive: -0.004 | inactive: -0.02 | inactive: 0.009 | inactive: -0.02 | inactive: -0.023 | inactive: -0.023 | inactive: -0.031 | inactive: -0.026 | inactive: -0.064 | inactive: -0.029 | inactive: 0.061 | inactive: 0.034 | inactive: 0.012 | inactive: -0.024 | inactive: -0.007 | inactive: 0.042 | inactive: 0.022
